Columns and labels:
Sprague-Dawley rats [1] = test: ICV infusion of IGF-1, IGFBP-3 or NLS mutant with basal and hyperinsulinemic clamp; format: in vivo, rat; conditions: for GH: plasma, end of clamp study; for Visceral fat: at sacrifice; for Body weight / Food intake: basal characteristics of group; for IGF-1: peripheral plasma
Excerpt: (§1) Young (3 mo old, n=6 in each group), male Sprague-Dawley rats (Charles River Laboratories, Wilmington, Mass.) were used for this study. Rats were housed in individual cages and were subjected to a standard light (6:00 AM to 6:00 PM)—dark (6:00 PM to 6:00 AM) cycle. All rats were fed ad libitum using regular rat chow that consisted of 64% carbohydrate, 30% protein, and 6% fat with a physiological fuel value of 3.3-kcal/g chow. In the rats that received ICV infusions, 2 to 4 weeks before the in vivo study, the rats were anesthetized by inhalation of isoflurane and a cannula was placed ICV in the third ventricle for infusions of IGF-1, IGFBP-3 or IGFBP-3 mutant or artificial cerebrospinal fluid (aCSF), as previously described (Muzumdar et al., 2003) (FIG. 1). Briefly, a 26-gauge stainless steel guide cannula (Plastics One, Roanoke, Va.) was chronically implanted into the third ventricles using the following coordinates from bregma: anterior-posterior; +0.2 mm dorsal-ventral; −9.0 mm medial-lateral; 0.0 directly on the mid-sagittal suture, followed by a 28-gauge dummy cannula, inserted to prevent clogging of the guide cannula. The implant was secured to the skull with Caulk Grip dental cement, and the skin was closed over the implant using wound clips. The recovery of rats from the surgical stress was monitored with daily weight, food intake, and movement.
(§2) Upon recovery of body weight, usually a week, indwelling catheters were placed in the right internal jugular vein and in the left carotid artery (Muzumdar et al., 2003). The venous catheter was extended to the level of the right atrium, and the arterial catheter was advanced to the level of the aortic arch. Recovery was continued until body weight was within 3% of the pre-operative weight (˜4-6 days). In the rats that received peripheral IGFBP-3, only the vascular catheters were placed.
(§3) Studies were performed in unrestrained rats using the insulin clamp technique, in combination with high performance liquid chromatography-purified [3-^3H]glucose and [U-^14C]lactate infusions, as described previously (Liu et al., 1998). Food was removed for ˜5 h before the in vivo protocol. All studies lasted 360 min and included a 120-min equilibration period, a 120-min basal period for assessment of the basal glucose turnover, and a 120-min hyperinsulinemic clamp period. All rats received ICV infusions (bolus followed by continuous ICV infusions of IGF-1, IGFBP-3, IGFBP-3 mutant or aCSF, depending on the group) over the entire 6 hours of the study. At the beginning of the basal period and 120 min before starting the glucose/insulin infusions, a primed-continuous infusion of high performance liquid chromatography-purified [3-^3H]glucose (NEN Life Science Products, Boston, Mass.; 20 μCi of bolus, 0.2 μCi/min) was initiated and maintained throughout the remaining 4 h of the study. In the final 2 hours of the study, the rats were subjected to hyperinsulinemic clamp. The protocol followed during the insulin clamp study was similar to that previously described (Liu et al., 1998). Briefly, a primed-continuous infusion of regular insulin (3 milliunits/kg·min) was administered, and a variable infusion of a 25% glucose solution was started and periodically adjusted to clamp the plasma glucose concentration at 7-8 mM. To prevent endogenous insulin secretion and in order to control for possible effects of ICV infusions on the endocrine pancreas, somatostatin (1.5 μg/kg·min) was also infused in all the groups. [U-^14C]Lactate (5 μCi of bolus/0.25 μCi/min) was infused during the last 10 min of the study.
A bolus of hIGF-1 (0.3 mcg, a gift from Tercica, South San Francisco) was followed by a continuous infusion over 6 hours (total dose of 1 mcg, 0.06 μg/kg/hr).
A bolus of non glycosylated hIGFBP-3 (1.25 μg, generously provided by Celtrix, Mountain View Calif.) was followed by a continuous infusion over 6 hours (total dose of 5.25 mcg, 0.26 μg/kg/hr). […]

Sprague-Dawley rats [2] = test: ICV infusion of humanin or F6A HN with basal and hyperinsulinemic clamp (Example 2); format: in vivo, rat
Excerpt: as §1, with “chow.” for “chow. In the rats that received ICV infusions,”, “and ICV” for “and a”, “placed” for “placed ICV”, “of humanin, humanin analog F6A HN” for “of IGF-1, IGFBP-3 or IGFBP-3 mutant”, “artificial CSF” for “artificial cerebrospinal fluid”, “(FIG. 6).” for “(FIG. 1).”
as §2, with “humanin,” for “IGFBP-3,”
as §3, with “[3-^3H]glucose,” for “[3-^3H]glucose and [U-^14C]lactate infusions,”, “humanin, F6A HN” for “IGF-1, IGFBP-3, IGFBP-3 mutant”, “milliunits/kg-min)” for “milliunits/kg·min)”, “μg/kg-min)” for “μg/kg·min)”, “groups.” for “groups. [U-^14C]Lactate (5 μCi of bolus/0.25 μCi/min) was infused during the last 10 min of the study.”
A bolus of humanin (6 μg) was followed by a continuous infusion over 6 hours (total dose of 18 μg, 0.1 μg/kg/min).
F6A HN has one amino acid substitution (F6A-phenylalanine to alanine on position 6) and has been characterized. A bolus of F6 A HN ([…]) was followed by a continuous infusion over 6 hours (total 18 μg, 0.1 μg/kg/min).
Plasma glucose (sample volume 10 μl) was measured by the glucose oxidase method (Glucose Analyzer II, Beckman Instruments, Palo Alto, Calif.). […]

[3] = basal characteristics of group, ICV humanin study
[4] = basal plasma, ICV humanin study
[5] = ICV IGFBP-3 or NLS mutant over 6 h, clamp study
[6] = ICV IGFBP-3 or NLS mutant over 6 h, hyperinsulinemic clamp 3 mU/kg/min, last 60 min
[7] = ICV IGFBP-3 or NLS mutant over 6 h, hyperinsulinemic clamp, last 60 min
[8] = ICV IGFBP-3 or NLS mutant over 6 h
[9] = basal plasma, ICV IGFBP-3/mutant study

| Compound | Leptin (Sprague-Dawley rats [1]; [5]) | Glucose (Sprague-Dawley rats [1]; [6]) | Insulin (Sprague-Dawley rats [1]; [7]) | IGF-1 (Sprague-Dawley rats [1]; [8]) | GH (Sprague-Dawley rats [1]; [8]) | Visceral fat (Sprague-Dawley rats [1]; ICV IGFBP-3/mutant study) | Body weight (Sprague-Dawley rats [1]; ICV IGFBP-3/mutant study) | Food intake (Sprague-Dawley rats [1]; ICV IGFBP-3/mutant study) | FFA (Sprague-Dawley rats [1]; [9]) | Glucose (Sprague-Dawley rats [1]; [9]) | Insulin (Sprague-Dawley rats [1]; [9]) | Leptin (Sprague-Dawley rats [1]; [9]) | other results |
| --- | --- | --- | --- | --- | --- | --- | --- | --- | --- | --- | --- | --- | --- |
| IGF-1: hIGF-1, Insulin-like growth factor-1, a gift from Tercica |  |  |  |  |  |  |  |  |  |  |  |  | Leptin (Sprague-Dawley rats [1]; ICV IGF-1 1 μg over 6 h, clamp study): 2.18 ± 0.48 ng/mL; Glucose (Sprague-Dawley rats [1]; ICV IGF-1 1 μg over 6 h, hyperinsulinemic clamp 3 mU/kg/min, last 60 min): 7.3 ± 0.1 mmol/L; Insulin (Sprague-Dawley rats [1]; ICV IGF-1 1 μg over 6 h, hyperinsulinemic clamp, last 60 min): 40.53 ± 6.0 uU/ml; GH (Sprague-Dawley rats [1]; ICV IGF-1 1 μg over 6 h): 2.15 ± 0.94 ng/mL; Visceral fat (Sprague-Dawley rats [1]; ICV IGF-1 study): 4.0 ± 0.2 g; Body weight (Sprague-Dawley rats [1]; ICV IGF-1 study): 294 ± 14 g; Food intake (Sprague-Dawley rats [1]; ICV IGF-1 study): 22 ± 2 g; FFA (Sprague-Dawley rats [1]; basal plasma, ICV IGF-1 study): 0.70 ± 0.04 mEq/L; Glucose (Sprague-Dawley rats [1]; basal plasma, ICV IGF-1 study): 7.6 ± 0.1 mmol/L; Insulin (Sprague-Dawley rats [1]; basal plasma, ICV IGF-1 study): 1.94 ± 0.32 ng/mL; Leptin (Sprague-Dawley rats [1]; basal plasma, ICV IGF-1 study): 0.91 ± 0.05 ng/mL |
| CC[C@H](C)[C@H](NC(=O)[C@H](CCC(=O)O)NC(=O)[C@H](CO)NC(=O)[C@@H](NC(=O)[C@H](CC(C)C)NC(=O)[C@H](CC(C)C)NC(=O)[C@H](CC(C)C)NC(=O)[C@H](CC(C)C)NC(=O)[C@H](CS)NC(=O)[C@H](CO)NC(=O)[C@H](Cc1ccccc1)NC(=O)CNC(=O)[C@H](CCCNC(=N)N)NC(=O)[C@@H]1CCCN1C(=O)[C@H](C)NC(=O)[C@@H](N)CCSC)[C@@H](C)O)C(=O)N[C@@H](CC(=O)O)C(=O)N[C@@H](CC(C)C)C(=O)N1CCC[C@H]1C(=O)N[C@H](C(=O)N[C@@H](CCCCN)C(=O)N[C@@H](CCCNC(=N)N)C(=O)N[C@@H](CCCNC(=N)N)C(=O)N[C@@H](C)C(=O)O)C(C)C [Humanin, maprgfscll lltseidlpv krra] |  |  |  |  |  |  |  |  |  |  |  |  | Glucose (Sprague-Dawley rats [2]; ICV 18 μg over 6 h, hyperinsulinemic clamp 3 mU/kg/min, last 60 min): 1.4 ± 0.04 g/dL; Insulin (Sprague-Dawley rats [2]; ICV 18 μg over 6 h, hyperinsulinemic clamp, last 60 min): 4.8 ± 0.5 ng/mL; Visceral fat (Sprague-Dawley rats [2]; at sacrifice, ICV humanin study): 3.02 ± 0.4 g; Body weight (Sprague-Dawley rats [2]; [3]): 294 ± 28 g; Food intake (Sprague-Dawley rats [2]; [3]): 25.4 ± 0.9 g; FFA (Sprague-Dawley rats [2]; [4]): 1.19 ± 0.34 mEq/L; Glucose (Sprague-Dawley rats [2]; [4]): 1.49 ± 0.07 g/dL; Insulin (Sprague-Dawley rats [2]; [4]): 1.13 ± 0.16 ng/mL |
| IGFBP-3: non glycosylated hIGFBP-3 (IGF binding protein-3), provided by Celtrix | 3.05 ± 0.83 ng/mL | 7.5 ± 0.4 mmol/L | 57.8 ± 3.8 uU/ml | 667 ± 62 ng/mL | 1.28 ± 0.21 ng/mL | 4.5 ± 0.7 g | 333 ± 16 g | 25.8 ± 0.9 g | 0.92 ± 0.05 mEq/l | 7.7 ± 0.3 mmol/L | 1.36 ± 0.07 ng/mL | 2.50 ± 0.23 ng/mL |  |
| NLS: non-glycosylated NLS mutant of IGFBP-3 with two amino acid substitutions (K228E and R230G) | 2.79 ± 0.77 ng/mL | 7.7 ± 0.2 mmol/L | 55.4 ± 11.5 uU/ml | 595 ± 81 ng/mL | 2.87 ± 0.94 ng/mL | 5.4 ± 0.6 g | 333 ± 15 g | 25.3 ± 1.6 g | 0.85 ± 0.11 mEq/l | 7.7 ± 0.2 mmol/L | 1.24 ± 0.54 ng/mL | 2.09 ± 0.47 ng/mL |  |
